# Data from PubChem BioAssay AID1347076 (National Center for Advancing Translational Sciences (NCATS), 2019).
# The whole screen tested about 400,000 compounds, of which about 13,000 (3.2%) were called active. Inconclusive results, whose numbers are uncertain, are shown with a selection of clear calls. Calls follow the shape of the dose curve; as a rule, active = well fitted cell-killing curve with a large enough effect; inconclusive = small, poorly fitted or top-dose-only effect, or effect the other way; inactive = flat fitted curve, though single readings scatter. A potency beside an inconclusive call is a rough fit, not a confirmed value.
# Experiment: qHTS assay for MDR1-selective chemotherapeutics: Primary screen using the drug-selected MDR subline cells KB-V1; also: nearly all actives have a fitted effect of over 60% in size
# Conditions: KB-V1 MDR cells viability, CellTiter-Glo, 72 h; activity change, negative = cytotoxicity: at 46.1 µM (top of the series)
# In short: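 Luminescent ATP read-out (CellTiter-Glo, 10 min) measures survival of drug-selected KB-V1 MDR cells after 72 h, 37 degrees C compound exposure. Medium: phenol-red-free DMEM, 10% FBS. Values from fitted concentration-response curves.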
# % is scaled to controls: 0 for no effect and ±100 for the full control effect; potency is read from the fitted curve at half-maximal effect.
Compound,Potency,"activity change, negative = cytotoxicity"
O=C(Nc1nnc2n1CCS2)c1cc(C(F)(F)F)cc(C(F)(F)F)c1,"inconclusive: 0.731 µM [cytotoxic, full curve, poor fit]",–
Cc1cccc(C)c1OCC(=O)N/N=C/c1cc2c(cc1[N+](=O)[O-])OCO2,"inconclusive: 16.4 µM [cytotoxic, partial curve]",–
Cc1ccc(C)c(NC(=O)Cn2cc(S(=O)(=O)c3ccc(F)cc3)c(=O)c3cc(F)ccc32)c1,"inconclusive: 9.2 µM [rising, partial curve]",–
CCn1c(=O)c2c3c(sc2n(C)c1=O)CCC3,"inconclusive: 16.4 µM [cytotoxic, partial curve, poor fit]",–
COc1ccc(/C=C/C(=O)N(C)C2CCCCC2)cc1Br,"inconclusive: 6.51 µM [cytotoxic, partial curve]",–
CCC(c1nnnn1-c1c(C)cccc1C)N1CCN(CC)CC1 (stereo unspecified),–,inactive: -22.1%
CN(C)S(=O)(=O)c1ccc2c(c1)N(CC(=O)N1CCC(C(N)=O)CC1)CCS2,–,inactive: -3.36%
CC(=O)c1c(C)[nH]c(C(=O)OCc2csc(CC(=O)Nc3ccccc3C)n2)c1C,–,inactive: -13.1%
CN1C(=O)N(CC(=O)Nc2ccc(C(F)(F)F)cc2)C(=O)C12CCCCC2,"inconclusive: 18.4 µM [cytotoxic, single point]",–
CCCOC(=O)c1cccc(Nc2nc(C(=O)OCC)nc3ccccc23)c1,"inconclusive: 29.1 µM [cytotoxic, single point]",–
CC(=O)Nc1cccc(C(=O)OC(C)C(=O)NC2CCCc3ccccc32)c1 (stereo unspecified),"inconclusive: 29.1 µM [cytotoxic, single point]",–
CC(=O)c1ccc(Nc2nc(-c3ccccc3)nc3ccccc23)cc1,–,inactive: -24.2%
Cc1c(Cc2ccc3c(c2)OCO3)sc(NC(=O)c2cccc3ccccc23)c1C(N)=O,–,inactive: 1.28%
Cc1sc2ncn(CC(=O)N3CCN(c4ccccc4F)CC3)c(=O)c2c1S(=O)(=O)N1CCOCC1,–,inactive: -5.14%
COc1ccc(CNC(=O)CN(C(=O)CCC(=O)Nc2ccccn2)c2cc(C)ccc2C)cc1,"inconclusive: 3.66 µM [cytotoxic, full curve]",–
CC(C)CN1C(=O)C(=O)N(CC(=O)Nc2cc(Cl)ccc2Oc2ccccc2)C1=O,"inconclusive: 29.1 µM [cytotoxic, single point]",–
CC1CCCN(c2ncnc3c2nnn3C)C1 (stereo unspecified),–,inactive: -11.5%
CC(=O)c1cccc(-c2ccnc3c2CC(C(=O)Nc2cccc(NS(C)(=O)=O)c2)O3)c1 (stereo unspecified),–,inactive: 0.0272%
Cc1cccc(NC(=S)N/N=C/c2cccn2Cc2ccc(F)cc2)c1,"inconclusive: 13 µM [cytotoxic, partial curve]",–
CCCCOc1ccc(-c2nnn(CCC(=O)N3CCOCC3)n2)cc1,"inconclusive: 5.8 µM [cytotoxic, full curve, poor fit]",–
CN(c1ccc(O)cc1)S(=O)(=O)c1ccc2ccccc2c1,"inconclusive: 23.1 µM [cytotoxic, single point]",–
CN(CC(=O)Nc1cccc(F)c1)C(=O)c1cccc(S(=O)(=O)N2CCN(c3ccccc3)CC2)c1,"inconclusive: 16.4 µM [cytotoxic, partial curve]",–
COc1ccc(CNC(=O)Cc2ccc(NC(=O)N3CCCCc4ccccc43)cc2)cc1,"inconclusive: 16.4 µM [cytotoxic, single point]",–
O=C1Cc2c([nH]c3ccc([N+](=O)[O-])cc23)-c2ccccc2N1,–,inconclusive: -95%

Compound,Potency,"activity change, negative = cytotoxicity"
CCOc1ccc(NC(=O)c2cc(S(=O)(=O)N3CCC(C)CC3)cn2C)cc1,–,inactive: 24.9%
CN(CC(=O)Nc1ccccc1F)CC(=O)Nc1ccccc1Br,"inconclusive: 29.1 µM [cytotoxic, single point]",–
CCN(CC)c1ncnc2c1cnn2Cc1ccc(Cl)cc1,"inconclusive: 18.4 µM [cytotoxic, single point]",–
Cc1ccc(S(=O)(=O)CCC(=O)Nc2ccccc2N2CCCC2)cc1,"inconclusive: 29.1 µM [cytotoxic, single point]",–
C[C@@H]1CNC(=O)c2c(C(=O)NCC(=O)OC(C)(C)C)ncn21,–,inactive: 3.76%
N#Cc1nc(Cc2cccc3ccccc23)oc1NCc1ccc2c(c1)OCO2,"inconclusive: 20.6 µM [cytotoxic, single point]",–
Cc1ccc(CNC(=O)COC(=O)c2cncc(Br)c2)cc1,–,inactive: 0%
COc1ccc(CCNC(=O)c2ccc(-c3ccc([N+](=O)[O-])cc3Cl)o2)cc1,"inconclusive: 18.4 µM [cytotoxic, single point]",–
Cc1noc(C)c1C(=O)Nc1nc2ccc(F)cc2s1,–,inactive: -43.4%
COc1ccccc1CCNC(=O)c1cnccn1,active: 16.4 µM,–
Cc1ccc2cc3c(nc2c1)N(Cc1ccco1)CC3,–,inactive: 2.82%
CCCSc1nnc2n(C)c(=O)c3c4c(sc3n12)CCC4,–,inactive: 8.81%
O=C(C1CCCN(Cc2ccc(Cl)cc2)C1)N1CCCCC1 (stereo unspecified),–,inactive: 16.8%
CC1(C(=O)NC2CCCCC2)CCC(=O)N1CCOc1ccccc1 (stereo unspecified),–,inactive: -1.91%
O=S(=O)(NCCN1CCCC1)c1ccc(C(F)(F)F)cc1,–,inactive: -10.5%
O=C1NC[C@H](Cc2ccc(O)cc2)N(C[C@H]2CCCN2C[C@H](Cc2ccccc2)N2C[C@H](Cc3ccccc3)N(CCc3ccccc3)C(=O)C2=O)C1=O,–,inactive: 10.8%
COc1cc2c(cc1OC)-c1cc(OCc3ccccc3Cl)nc(=O)n1CC2,"inconclusive: 29.1 µM [cytotoxic, single point]",–
COc1ccc(C2CC(c3ccccc3Cl)=NN2c2ccc(S(N)(=O)=O)cc2)cc1 (stereo unspecified),–,inactive: -29.3%
Cc1ccc(C)c(Cn2nnc3c(=O)[nH]c(C4CCCN(C(=O)C5CCCCC5)C4)nc32)c1 (stereo unspecified),"inconclusive: 16.4 µM [cytotoxic, partial curve]",–
CCc1nc(C)cc(N)c1OCc1ccccc1,"inconclusive: 23.1 µM [cytotoxic, single point]",–
CC1=C(C)CC(C(=O)Nc2nc(-c3ccc(F)cc3)c(C)s2)C(C(=O)O)C1 (stereo unspecified),"inconclusive: 29.1 µM [rising, single point]",–
Fc1ccc(N/N=C(/c2ccccc2)c2ccccn2)cc1,"inconclusive: 8.2 µM [rising, partial curve]",–
O=C(c1ccccc1Cc1ccccc1)N1CCN(S(=O)(=O)c2ccccc2Br)CC1,"inconclusive: 8.2 µM [cytotoxic, partial curve]",–
CN(CC(=O)O/N=C(\N)c1ccc(Br)cc1)S(=O)(=O)c1ccccc1,–,inactive: -24.1%

# Copied from the list:
# activity change, negative = cytotoxicity, CCOc1ccc(NC(=O)c2cc(S(=O)(=O)N3CCC(C)CC3)cn2C)cc1 is entered as inactive: 24.9%
# activity change, negative = cytotoxicity, O=C(C1CCCN(Cc2ccc(Cl)cc2)C1)N1CCCCC1 (stereo unspecified) is entered as inactive: 16.8%
# Potency, COc1ccc(CNC(=O)Cc2ccc(NC(=O)N3CCCCc4ccccc43)cc2)cc1 is entered as inconclusive: 16.4 µM [cytotoxic, single point]

# Continuation.

Compound,Potency,"activity change, negative = cytotoxicity"
CCn1c(SCC(=O)c2c[nH]c3ccccc23)nnc1-c1cccs1,"inconclusive: 23.1 µM [cytotoxic, single point]",–
O=S(=O)(NCc1ccccc1Br)c1ccccc1Br,"inconclusive: 20.6 µM [cytotoxic, single point]",–
CCOc1ccccc1NC(=O)C1CCN(S(=O)(=O)c2cccc3nonc23)CC1,–,inactive: 0%
CCOc1cc(NC(=O)c2ccco2)c(OCC)cc1NC(=O)CCC(=O)NCc1cccnc1,"inconclusive: 23.1 µM [cytotoxic, partial curve, poor fit]",–
CC(C)(C)c1ccc(OCCC(=O)Nc2cccc(S(=O)(=O)N3CCCC3)c2)cc1,"inconclusive: 29.1 µM [cytotoxic, single point]",–
O=C1C=CC(=O)C(C2=C3C(=O)N(CCc4ccccc4)CC(=O)N3CCC2)=C1,–,inactive: -0.0858%
COC(=O)c1c(NC(=O)c2ccccc2)sc(C(=O)c2ccccc2)c1C,"inconclusive: 20.6 µM [cytotoxic, single point]",–
CNS(=O)(=O)c1ccc(CNC[C@H]2O[C@@H](n3ccc(N)nc3=O)[C@H](O)[C@@H]2O)cc1,–,inactive: -1.7%
CCN(c1ccccc1)S(=O)(=O)c1csc(C(N)=O)c1,–,inconclusive: 30%
CCOc1ccc(OCC)c(NC(=O)C2CCN(S(=O)(=O)c3cccnc3)CC2)c1,"inconclusive: 25.9 µM [cytotoxic, single point]",–
CCCC(=O)N1CCC1(C)C(=O)Nc1ccc2scnc2c1 (stereo unspecified),–,inactive: -0.0576%
CC1CCCN(S(=O)(=O)c2ccc(NC(=O)C3CCN(C(=O)c4ccco4)CC3)cc2)C1 (stereo unspecified),"inconclusive: 18.4 µM [cytotoxic, single point]",–
Cc1cccc(C)c1OCc1cc(C(=O)N2CC3C[C@@H]4CC2C[C@H](C3)C4)no1,"inconclusive: 20.6 µM [cytotoxic, single point]",–
CCOCCCn1c(SCC(=O)/C(C#N)=C(\C)N)nc2ccccc2c1=O,active: 8.2 µM,–
Cc1cccc(N2CCN(C(=O)C3CCCN(C(=O)c4cc5sccc5n4C)C3)CC2)c1C (stereo unspecified),–,inactive: -15.3%
CCOc1ccccc1N1CCN(C(=O)C(Sc2ccccc2)c2ccccc2)CC1 (stereo unspecified),"inconclusive: 20.6 µM [cytotoxic, partial curve]",–
O=C(COC(=O)c1cc([N+](=O)[O-])ccc1N1CCOCC1)NCCc1ccccc1,"inconclusive: 29.1 µM [cytotoxic, single point]",–
CCN(CC)c1nc2c(c(=O)[nH]c(=O)n2C)n1Cc1ccccc1Cl,"inconclusive: 2.91 µM [cytotoxic, full curve]",–
Cc1ccc(NC(=O)COC(=O)c2ccnn2C)cc1,"inconclusive: 14.6 µM [rising, single point]",–
Cc1ccc(S(=O)(=O)N2CCN(CCOc3ccccc3)CC2)cc1,"inconclusive: 16.4 µM [cytotoxic, single point]",–
CCCCNC(=O)C1CC(c2ccccc2[N+](=O)[O-])=NO1 (stereo unspecified),"inconclusive: 18.4 µM [rising, single point]",–
COc1ccccc1-c1oc2ccccc2c1-c1ccc2cc[nH]c2c1,"inconclusive: 18.4 µM [cytotoxic, single point]",–
COc1cc(C(=O)NCC(c2ccco2)N2CCCC2)ccc1OCc1c(C)noc1C (stereo unspecified),active: 10.3 µM,–
